PubChem BioAssay AID1259405 | NCATS, 2018

- Screen: 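Knock-downs that lift recombinant protein yield in hamster ovary cells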 (primary screen)
- Cells: Chinese hamster CHO-K1 ovary cells with stable secreted eGFP expression
- Knock-down reagent: single siRNA against mouse genes, 0.8 pmol siRNA per well (2 µl of 400 nM stock)
- Duration: 3 days
- Measurement: 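Percent of the per-plate non-targeting control median for intracellular GFP per well by laser scanning cytometry and for cell viability by ATP luminescence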
- Scale: GFP, % of control: higher = more GFP per well, higher productivity
- Hit rule: 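Called active when intracellular GFP, relative to negative control, is at or above 120%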
Shown is an unselected part of about 50,000 reagents. Over the whole deposit, about 4,000 (8%) got an active call. 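Mouse siRNA library applied to hamster cells; one well for each siRNA.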 Further read-outs or replicates are left out here.

GFP, % of control, by gene and reagent
Efemp2: SID363582553 98.1 inactive; SID363584313 55.8 inactive
Ythdf2: SID363556790 36.4 inactive; SID363563694 45.9 inactive; SID363587240 70.9 inactive
Nrk: SID363570759 79 inactive
Phox2b: SID363554468 41 inactive; SID363567915 42.2 inactive; SID363585974 68.5 inactive
Epb41l4b: SID363540091 90.5 inactive; SID363561392 97.5 inactive; SID363564428 74.7 inactive
Foxd1: SID363573502 40.8 inactive; SID363588741 76 inactive
Or2n1b: SID363554388 170 active; SID363567835 47.9 inactive; SID363585192 71.8 inactive
Plekho2: SID363546533 51 inactive; SID363548289 66.7 inactive; SID363560467 70.7 inactive
Mageh1: SID363562379 64.4 inactive; SID363567517 97.4 inactive; SID363584874 76.2 inactive
Rasal2: SID363541233 46 inactive; SID363555860 51.2 inactive; SID363566149 87.6 inactive
Edn3: SID363541460 93.2 inactive; SID363556087 55.1 inactive; SID363566376 67.7 inactive
Defb8: SID363553660 37.2 inactive; SID363561617 84.1 inactive; SID363565355 93.2 inactive
Lpp: SID363572361 88.4 inactive; SID363574121 96.8 inactive
Rbp4: SID363569898 85.6 inactive; SID363576938 88.8 inactive; SID363578346 78.3 inactive
Il11: SID363540354 119 inactive; SID363542106 37.3 inactive; SID363567022 89 inactive
G930045G22Rik: SID363540023 71.3 inactive; SID363561324 28.2 inactive; SID363564360 54.8 inactive
Susd3: SID363540614 66.8 inactive; SID363543065 77.3 inactive; SID363552558 42.1 inactive
Gba1: SID363569756 71.9 inactive; SID363576796 92.7 inactive; SID363578204 86.6 inactive
Spryd4: SID363542359 152 active; SID363551850 79.5 inactive; SID363559455 74.6 inactive
Col4a5: SID363550285 71.4 inactive; SID363564794 57.1 inactive; SID363588339 52 inactive
Nedd1: SID363562228 80 inactive; SID363567366 75.7 inactive; SID363584723 78 inactive
Pex3: SID363574844 123 active; SID363575900 83.3 inactive; SID363580476 109 inactive
Ppp5c: SID363574964 73.5 inactive; SID363580596 73.7 inactive; SID363582708 98.8 inactive
Pcdhb4: SID363541828 90.8 inactive; SID363553420 70.2 inactive; SID363566744 86 inactive
Atp2c1: SID363545481 75.9 inactive; SID363548994 88.9 inactive; SID363562800 51.3 inactive
Lncpint: SID363542974 83.9 inactive; SID363546491 63.4 inactive; SID363548247 66.4 inactive
Steap3: SID363540655 88.7 inactive; SID363543106 122 active; SID363552599 159 active
Or5w8: SID363544597 66 inactive; SID363550925 82.1 inactive; SID363557474 64.8 inactive
Nae1: SID363541811 119 inactive; SID363553403 59 inactive; SID363566727 69 inactive
Ccna1: SID363573457 94.6 inactive; SID363588696 118 inactive

11 entries already listed, ordered by “GFP, % of control”, high to low:
Gene	PubChem SID	GFP, % of control	call
Steap3	SID363552599	159	active
Steap3	SID363543106	122	active
Nae1	SID363541811	119	inactive
Ccna1	SID363588696	118	inactive
Ccna1	SID363573457	94.6	inactive
Steap3	SID363540655	88.7	inactive
Or5w8	SID363550925	82.1	inactive
Nae1	SID363566727	69	inactive
Or5w8	SID363544597	66	inactive
Or5w8	SID363557474	64.8	inactive
Nae1	SID363553403	59	inactive
